From PMC4742146
These are yes or no findings as the source states them, for the method shown. In cells and extracts the contact can be indirect. Some binding calls cover weakened binding; strength is not graded here. For part of these data: Sequences can lack the tags named with a protein.

Tests used:
[1] = target: T1, GFP-tagged full-length MAGI3 (UniProt Q5TCQ9); experiment: co-IP; COS-7 cells transfected with Flag-β-catenin and/or GFP-MAGI3; lysates immunoprecipitated with anti-GFP, blotted with anti-Flag
T1 sequence: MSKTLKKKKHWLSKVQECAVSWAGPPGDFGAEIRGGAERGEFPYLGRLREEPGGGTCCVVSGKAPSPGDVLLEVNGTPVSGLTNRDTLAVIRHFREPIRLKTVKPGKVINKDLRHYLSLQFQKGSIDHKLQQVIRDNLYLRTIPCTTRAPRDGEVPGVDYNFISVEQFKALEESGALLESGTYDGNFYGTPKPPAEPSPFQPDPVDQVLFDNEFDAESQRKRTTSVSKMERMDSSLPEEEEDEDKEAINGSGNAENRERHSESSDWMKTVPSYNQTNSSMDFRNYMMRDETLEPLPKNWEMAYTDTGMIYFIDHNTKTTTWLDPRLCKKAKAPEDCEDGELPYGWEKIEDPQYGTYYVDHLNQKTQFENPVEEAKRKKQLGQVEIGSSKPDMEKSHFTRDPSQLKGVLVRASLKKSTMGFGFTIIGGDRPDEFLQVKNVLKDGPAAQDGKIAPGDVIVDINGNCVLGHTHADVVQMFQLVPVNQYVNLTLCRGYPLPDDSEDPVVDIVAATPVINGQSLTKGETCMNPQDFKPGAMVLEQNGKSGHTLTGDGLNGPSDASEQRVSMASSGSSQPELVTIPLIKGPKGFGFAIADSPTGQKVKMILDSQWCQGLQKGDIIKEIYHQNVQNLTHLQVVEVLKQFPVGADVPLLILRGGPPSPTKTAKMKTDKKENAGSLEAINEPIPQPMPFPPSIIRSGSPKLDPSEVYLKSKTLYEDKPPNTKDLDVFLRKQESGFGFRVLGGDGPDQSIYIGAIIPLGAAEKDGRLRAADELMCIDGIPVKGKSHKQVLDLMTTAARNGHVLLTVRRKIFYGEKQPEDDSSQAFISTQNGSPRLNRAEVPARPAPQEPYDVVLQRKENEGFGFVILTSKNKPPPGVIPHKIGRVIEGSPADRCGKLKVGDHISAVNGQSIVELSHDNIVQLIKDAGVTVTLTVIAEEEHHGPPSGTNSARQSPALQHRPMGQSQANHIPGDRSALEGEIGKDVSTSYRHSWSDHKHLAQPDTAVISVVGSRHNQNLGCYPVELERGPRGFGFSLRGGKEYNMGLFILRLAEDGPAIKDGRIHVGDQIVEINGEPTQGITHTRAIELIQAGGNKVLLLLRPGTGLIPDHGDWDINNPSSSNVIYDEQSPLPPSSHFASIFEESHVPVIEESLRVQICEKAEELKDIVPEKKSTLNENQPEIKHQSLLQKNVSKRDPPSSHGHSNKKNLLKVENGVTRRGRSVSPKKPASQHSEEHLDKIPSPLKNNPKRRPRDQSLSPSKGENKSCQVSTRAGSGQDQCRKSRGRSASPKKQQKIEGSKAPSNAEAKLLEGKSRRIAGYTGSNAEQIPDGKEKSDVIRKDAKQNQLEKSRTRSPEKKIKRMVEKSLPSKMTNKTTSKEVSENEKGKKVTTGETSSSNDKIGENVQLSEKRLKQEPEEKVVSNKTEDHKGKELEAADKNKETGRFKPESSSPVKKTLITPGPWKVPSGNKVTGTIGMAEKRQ

[2] = target: GST-β-catenin fusion protein (UniProt P35222); experiment: pull-down; GST or GST-β-catenin fusion proteins used to pull down GFP-tagged full-length MAGI3 from transfected COS-7 cell lysates; western blot with anti-GFP; only the target purified
[3] = target: T2, MAGI3, endogenous in C6 glioma cells (rat (endogenous in C6)) (UniProt Q9JK71); experiment: co-IP; endogenous proteins; C6 cell lysates immunoprecipitated with anti-MAGI3, blotted with anti-β-catenin
T2 sequence: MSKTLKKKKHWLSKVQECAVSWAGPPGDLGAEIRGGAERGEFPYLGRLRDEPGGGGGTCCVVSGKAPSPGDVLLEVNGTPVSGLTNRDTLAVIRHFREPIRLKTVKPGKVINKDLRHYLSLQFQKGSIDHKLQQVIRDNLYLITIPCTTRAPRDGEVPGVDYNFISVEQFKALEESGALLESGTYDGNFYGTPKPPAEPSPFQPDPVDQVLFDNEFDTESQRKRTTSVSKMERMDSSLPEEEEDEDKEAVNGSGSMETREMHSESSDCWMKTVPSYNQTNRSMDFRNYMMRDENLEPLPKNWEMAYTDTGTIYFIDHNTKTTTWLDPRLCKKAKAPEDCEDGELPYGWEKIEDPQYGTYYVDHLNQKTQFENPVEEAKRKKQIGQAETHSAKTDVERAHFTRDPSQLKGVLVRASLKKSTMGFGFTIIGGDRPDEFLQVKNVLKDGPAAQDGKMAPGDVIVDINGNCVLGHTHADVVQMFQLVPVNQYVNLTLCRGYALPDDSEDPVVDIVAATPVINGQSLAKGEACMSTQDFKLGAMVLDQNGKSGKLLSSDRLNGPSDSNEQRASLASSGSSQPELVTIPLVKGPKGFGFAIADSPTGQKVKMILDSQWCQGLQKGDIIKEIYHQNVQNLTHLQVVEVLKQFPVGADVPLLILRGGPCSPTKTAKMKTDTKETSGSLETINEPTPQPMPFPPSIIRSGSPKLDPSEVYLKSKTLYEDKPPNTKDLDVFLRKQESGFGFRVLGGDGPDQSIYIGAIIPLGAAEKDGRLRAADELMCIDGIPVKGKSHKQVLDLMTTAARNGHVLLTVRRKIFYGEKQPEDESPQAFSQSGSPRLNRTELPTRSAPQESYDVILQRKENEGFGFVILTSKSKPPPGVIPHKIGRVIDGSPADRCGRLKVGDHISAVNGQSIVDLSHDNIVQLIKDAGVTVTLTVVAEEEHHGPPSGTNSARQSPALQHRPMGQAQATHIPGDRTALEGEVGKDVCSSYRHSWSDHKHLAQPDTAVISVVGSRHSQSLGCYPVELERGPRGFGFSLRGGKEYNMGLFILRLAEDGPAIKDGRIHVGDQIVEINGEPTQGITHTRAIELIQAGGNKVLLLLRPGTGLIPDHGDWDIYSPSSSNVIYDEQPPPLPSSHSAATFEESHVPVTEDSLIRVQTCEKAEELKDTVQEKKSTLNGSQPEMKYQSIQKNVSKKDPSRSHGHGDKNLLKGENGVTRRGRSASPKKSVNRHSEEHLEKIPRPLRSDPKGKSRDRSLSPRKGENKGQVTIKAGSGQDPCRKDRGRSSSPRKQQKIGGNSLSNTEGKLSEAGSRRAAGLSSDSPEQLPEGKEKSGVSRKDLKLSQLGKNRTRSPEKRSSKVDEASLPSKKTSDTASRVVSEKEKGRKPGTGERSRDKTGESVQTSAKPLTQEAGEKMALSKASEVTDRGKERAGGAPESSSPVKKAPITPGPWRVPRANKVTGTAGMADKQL

## Flag-tagged wild-type β-catenin (from UniProt P35222 1-781)
[1]
  binding: binds

B1: GFP-tagged full-length MAGI3 (protein, UniProt Q5TCQ9 1-1481)
chain: T1 sequence
[2]
  binding: binds

B2: β-catenin, endogenous in C6 glioma cells (protein, UniProt Q9WU82 1-781)
chain: MATQADLMELDMAMEPDRKAAVSHWQQQSYLDSGIHSGATTTAPSLSGKGNPEEEDVDTSQVLYEWEQGFSQSFTQEQVADIDGQYAMTRAQRVRAAMFPETLDEGMQIPSTQFDAAHPTNVQRLAEPSQMLKHAVVNLINYQDDAELATRAIPELTKLLNDEDQVVVNKAAVMVHQLSKKEASRHAIMRSPQMVSAIVRTMQNTNDVETARCTAGTLHNLSHHREGLLAIFKSGGIPALVKMLGSPVDSVLFYAITTLHNLLLHQEGAKMAVRLAGGLQKMVALLNKTNVKFLAITTDCLQILAYGNQESKLIILASGGPQALVNIMRTYTYEKLLWTTSRVLKVLSVCSSNKPAIVEAGGMQALGPHLTDPSQRLVQNCLWTLRNLSDAATKQEGMEGLLGTLVQLLGSDDINVVTCAAGILSNLTCNNYKNKMMVCQVGGIEALVRTVLRAGDREDITEPAICALRHLTSRHQEAEMAQNAVRLHYGLPVVVKLLHPPSHWPLIKATVGLIRNLALCPANHAPLREQGAIPRLVQLLVRAHQDTQRRTSMGGTQQQFVEGVRMEEIVEGCTGALHILARDVHNRIVIRGLNTIPLFVQLLYSPIENIQRVAAGVLCELAQDKEAAEAIEAEGATAPLTELLHSRNEGVATYAAAVLFRMSEDKPQDYKKRLSVELTSSLFRTEPMAWNETADLGLDIGAQGEALGYRQDDPSYRSFHSGGYGQDALGMDPMMEHEMGGHHPGADYPVDGLPDLGHAQDLMDGLPPGDSNQLAWFDTDL
[3]
  binding: binds
